According to PubChem BioAssay AID2685 (National Center for Advancing Translational Sciences (NCATS), 2010):
The whole screen tested about 320,000 compounds, of which about 2,100 (0.66%) were called active. This list was built around the results that the source calls inconclusive (neither active nor inactive); the mix of calls is not that of the screen. The call rests on the fitted dose curve; in most records, active means well fitted inhibition curve with a large enough effect in the signal ratio, with a control signal flat (not every such curve was filed as active); inconclusive means small, poorly fitted or top-dose-only effect, or effect the other way, or a change in a side signal; inactive means flat fitted curve, though single readings scatter; the % refers to the signal ratio. Potencies of inconclusive entries are doubtful fits and often do not repeat.

Assay: qHTS Assay for Lipid Storage Modulators in Drosophila S3 Cells
Conditions: BODIPY lipid droplet fluorescence, 18-24 h, cells fed with added oleic acid; lipid storage change, negative = inhibition: at 46.1 µM (top of the series) unless noted
Procedure, shortened: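 Drosophila S3 cells loaded with oleic acid (400 uM, as added) and compounds at several concentrations; lipid droplets imaged by 488-nm laser-scanning cytometry, 500–530 nm intensity and object ratio to cell channel. Percent activity normalized to 20 uM Triacsin C.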
On the % scale 0 is the no-effect control and ±100 the full control effect; potency means the concentration at half of the fitted maximal effect.

| SMILES | lipid storage change, negative = inhibition | Potency |
| --- | --- | --- |
| COc1ccc(CCn2c(N)cc(=O)[nH]c2=O)cc1OC | inconclusive: -23.7% |  |
| COc1cc(/C=C/C(=O)OCC(=O)NC(=O)NC2CCCC2)ccc1OCC#N | inconclusive: 20.1% |  |
| Cc1cc(C)cc(NC(=O)C(C)N2C(=O)c3ccccc3C2=O)c1 (stereo not drawn) |  | inconclusive: 4610 nM [falling, single point] |
| COc1ccc(S(=O)(=O)N2CCCc3ccccc32)cc1OC | inconclusive: -8.07% |  |
| C=CCNC(=O)c1ccc(NC(=O)CC2SC(N3CCCC3)=NC2=O)cc1 (stereo not drawn) | inconclusive: 16.2% |  |
| CCOC(=O)N1CCN(C(=O)Cn2c(C)cc3ccccc3c2=O)CC1 | inconclusive: 39% |  |
| CCc1c(O)nc(N2CCN(Cc3ccccc3)CC2)[nH]c1=O | inconclusive: 57.5% |  |
| Cc1cn(-c2cc(NC(=O)c3ccc(C)c(NC(=O)c4cccc(-c5cn[nH]c(=O)c5)c4)c3)cc(C(F)(F)F)c2)cn1 | inconclusive: 19.9% |  |
| CC(C)C(NC(=O)c1ccc(C(C)(C)C)cc1)C(=O)NCCc1ccccn1 (stereo not drawn) | inconclusive: 19.5% |  |
| Cc1cccc(C(=O)OCC(=O)c2c(C)[nH]c3ccccc23)c1O |  | inconclusive: 3660 nM [activator, partial curve] |
| Cc1onc(-c2ccccc2)c1C(=O)OCC(=O)NCc1ccc(F)cc1 |  | inconclusive: 6510 nM [activator, single point] |
| COc1ccccc1NCCC(=O)OCC(=O)Nc1cccc(S(=O)(=O)N(C)C)c1 |  | inconclusive: 164 nM [falling, full curve, poor fit] |
| COc1ccc(/C=C/C(=O)c2ccc(NS(=O)(=O)c3ccc(C)cc3)cc2)cc1O | inconclusive: -31.6% |  |
| Cc1cccc(C)c1NC(=O)CSc1nnc(C2CCCCC2)o1 | inconclusive: 64.1% |  |
| CC(C)OC(=O)CN1C(=O)S/C(=C/c2ccc(N3CCCCC3)o2)C1=O | inconclusive: -129% |  |
| Clc1ccc(CSc2nncn2-c2ccc3c(c2)OCCO3)cc1 | inconclusive: 13.4% |  |
| O=C(O)CCC(=O)N1N=C(c2ccccc2)CC1c1cccs1 (stereo not drawn) | inconclusive: 47.2% |  |
| CCS(=O)(=O)N1Cc2ccccc2CC1C(=O)Nc1nc2c(C)cccc2s1 (stereo not drawn) |  | inconclusive: 4610 nM [activator, full curve] |
| C=CCOc1ccc(/C(O)=C2\C(=O)C(=O)N(CCCOC)C2c2ccncc2)cc1 (stereo not drawn) |  | inconclusive: 130 nM [falling, full curve, poor fit] |
| CCN1CCc2c(sc(NC(=O)c3ccc(S(=O)(=O)N(C)CC4CCCO4)cc3)c2C(N)=O)C1 (stereo not drawn) |  | active: 2910 nM |
| CCOC(=O)c1ccc(NC(=O)NCc2ccccc2OC)cc1 | inconclusive: -0.808% |  |
| O=C(CSc1nnc(-c2ccc(Br)cc2)o1)N1CCN(C(=O)c2ccco2)CC1 |  | inconclusive: 820 nM [activator, partial curve, poor fit] |
| CCn1cc(C(=O)NCCC2=CCCCC2)c(=O)c2cc(S(=O)(=O)N(C)C)ccc21 |  | inconclusive: 16400 nM [falling, single point] |
| CCN(C(=O)CSc1ncccn1)C1CCS(=O)(=O)C1 (stereo not drawn) | inconclusive: -3.21% |  |

Pulled one by one from the entries so far:

| SMILES | lipid storage change, negative = inhibition | Potency |
| --- | --- | --- |
| CC(C)C(NC(=O)c1ccc(C(C)(C)C)cc1)C(=O)NCCc1ccccn1 (stereo not drawn) | inconclusive: 19.5% |  |
| O=C(O)CCC(=O)N1N=C(c2ccccc2)CC1c1cccs1 (stereo not drawn) | inconclusive: 47.2% |  |
| CCOC(=O)c1ccc(NC(=O)NCc2ccccc2OC)cc1 | inconclusive: -0.808% |  |
| CCOC(=O)N1CCN(C(=O)Cn2c(C)cc3ccccc3c2=O)CC1 | inconclusive: 39% |  |

(next part)

| SMILES | lipid storage change, negative = inhibition | Potency |
| --- | --- | --- |
| CCN=c1scc(-c2ccccc2)n1/N=C/c1ccccn1 | inconclusive: 25.9% |  |
| CCOC(=O)N1CCN(Cc2nc3c(c(=O)n(C)c(=O)n3C)n2Cc2ccccc2C)CC1 |  | inconclusive: 517 nM [rising, full curve, poor fit] |
| Cc1noc(C)c1CSc1nnc2sc3ccccc3n12 | inconclusive: 29.8% |  |
| CCCn1c(NCc2ccco2)nc2c1c(=O)n(C)c(=O)n2C | inconclusive: -12.3% |  |
| CC1=C(C(N)=O)C(c2ccc(Br)cc2)n2nc(CCCO)nc2N1 (stereo not drawn) |  | inconclusive: 51.7 nM [falling, full curve, poor fit] |
| COc1ccc(C2(C)NC(=O)N(CC(=O)NC3(C#N)CCCCC3)C2=O)cc1 (stereo not drawn) |  | inconclusive: 1840 nM [activator, partial curve] |
| Cc1ccc(NC(=O)Nc2ccc3c(c2)CCC3)cc1 |  | inconclusive: 25900 nM [activator, partial curve] |
| CCn1c(=O)n(-c2ccc(Cl)cc2)c(=O)c2c3c(sc21)COC(C)(C)C3 | inconclusive: -36.1% |  |
| Cc1cc(C(=O)NNC(=O)/C=C/c2ccc(F)cc2)c(C)o1 | inconclusive: -4.78% |  |
| COC(=O)c1sccc1NC(=O)Nc1cccc(C)c1 | inconclusive: 1.97% |  |
| CCOc1ccc(C(C)NC(=O)c2cc(=O)[nH]c3ccccc23)cc1OCC (stereo not drawn) |  | active: 2.1 nM |
| Cc1ccc(C)c(NC(=O)COc2coc(CN3CCc4ccccc4C3)cc2=O)c1 |  | active: 6510 nM |
| CS(=O)(=O)c1ccc(Cl)c(NC(=O)C2CCCCN2S(=O)(=O)c2ccccc2)c1 (stereo not drawn) | inconclusive: -19.1% |  |
| Clc1ccccc1/C=N/N1CCN(Cc2ccccc2)CC1 | inconclusive: 88.8% |  |
| O=S(=O)(NCCN1CCOCC1)c1ccc(Oc2ccccc2Cl)cc1 | inconclusive: 3.34% |  |
| C=C(C)CNC(=S)NN=C1c2ccccc2-c2ccccc21 | inconclusive: 41% |  |
| FC(F)(F)c1ccc(Oc2ccc3cc(Br)ccc3c2)nc1 | inconclusive: -17.2% |  |
| CN(C)CCN(C(=O)c1ccc(S(=O)(=O)N(C)c2ccccc2)cc1)c1nc2ccc(Cl)cc2s1 |  | inconclusive: 32600 nM [falling, single point] |
| COc1cccc(-c2c(NC(=O)c3ccco3)oc3ccccc3c2=O)c1 | inconclusive: 16.4% |  |
| CCOc1ccc(N(CC(=O)Nc2cccc(C)c2C)S(=O)(=O)c2c(C)[nH]c(=O)[nH]c2=O)cc1 |  | inconclusive: 4.6 nM [rising, full curve, poor fit] |
| CCc1ccc(C(=O)CSc2n[nH]c(-c3ccncc3)n2)cc1 | inconclusive: 259% |  |
| CCN1CCN(c2c(Cl)cccc2NC(=O)c2ccco2)CC1 | inconclusive: 3.23% |  |
| OC(COc1ccc(C2C=CCC2)cc1)CN1CCCCC1 (stereo not drawn) |  | active: 731 nM |
| CC1(C)CC(NS(=O)(=O)c2ccc3ccccc3c2)CC(C)(C)N1 | inconclusive: 33.2% |  |
